This list holds what a sample rich in targets with a hit left over. Single values of this set are uncertain. The entries are a selection whose mix differs from that of the whole data set.

Sequences of proteins named here, by UniProt entry; tags and fusion partners are left off. A change or cut given only in a name is not applied to a line headed by its entry.
UniProt O43776: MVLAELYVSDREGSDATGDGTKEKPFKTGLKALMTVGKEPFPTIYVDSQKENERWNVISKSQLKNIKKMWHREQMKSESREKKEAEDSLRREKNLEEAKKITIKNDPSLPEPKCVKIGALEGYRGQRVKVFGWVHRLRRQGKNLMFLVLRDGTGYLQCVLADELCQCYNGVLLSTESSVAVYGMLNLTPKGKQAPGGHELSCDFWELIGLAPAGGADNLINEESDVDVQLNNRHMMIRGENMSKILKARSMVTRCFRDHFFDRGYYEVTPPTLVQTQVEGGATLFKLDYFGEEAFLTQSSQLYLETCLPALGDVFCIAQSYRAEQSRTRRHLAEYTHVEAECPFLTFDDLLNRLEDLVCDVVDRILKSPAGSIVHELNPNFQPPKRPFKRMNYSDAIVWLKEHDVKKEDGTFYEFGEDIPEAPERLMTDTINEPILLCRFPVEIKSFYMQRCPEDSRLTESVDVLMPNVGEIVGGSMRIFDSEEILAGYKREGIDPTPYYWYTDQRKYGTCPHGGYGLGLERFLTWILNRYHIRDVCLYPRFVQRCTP
UniProt O75223: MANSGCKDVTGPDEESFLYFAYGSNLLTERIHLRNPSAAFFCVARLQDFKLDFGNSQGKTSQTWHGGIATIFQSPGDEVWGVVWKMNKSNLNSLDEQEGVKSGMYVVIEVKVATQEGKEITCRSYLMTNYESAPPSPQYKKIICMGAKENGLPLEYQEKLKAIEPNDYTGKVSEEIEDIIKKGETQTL
UniProt O43719: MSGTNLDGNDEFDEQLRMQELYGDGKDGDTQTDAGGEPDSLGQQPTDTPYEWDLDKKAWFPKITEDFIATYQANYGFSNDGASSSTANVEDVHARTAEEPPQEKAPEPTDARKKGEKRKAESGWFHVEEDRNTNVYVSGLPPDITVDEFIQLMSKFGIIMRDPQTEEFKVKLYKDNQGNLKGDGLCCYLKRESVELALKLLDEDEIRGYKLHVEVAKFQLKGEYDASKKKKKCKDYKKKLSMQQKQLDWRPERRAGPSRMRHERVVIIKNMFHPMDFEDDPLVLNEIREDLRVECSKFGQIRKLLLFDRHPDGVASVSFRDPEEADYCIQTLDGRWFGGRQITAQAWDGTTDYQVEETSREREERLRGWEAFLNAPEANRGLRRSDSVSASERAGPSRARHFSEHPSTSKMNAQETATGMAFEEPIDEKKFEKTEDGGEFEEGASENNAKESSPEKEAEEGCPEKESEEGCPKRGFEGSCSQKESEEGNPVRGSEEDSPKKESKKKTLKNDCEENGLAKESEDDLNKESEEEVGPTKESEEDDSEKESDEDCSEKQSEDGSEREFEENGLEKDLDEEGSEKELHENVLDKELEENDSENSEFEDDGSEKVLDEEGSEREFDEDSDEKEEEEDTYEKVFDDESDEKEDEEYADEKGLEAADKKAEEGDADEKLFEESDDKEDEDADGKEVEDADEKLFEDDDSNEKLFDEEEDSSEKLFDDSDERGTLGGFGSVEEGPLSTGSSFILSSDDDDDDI
UniProt O60664: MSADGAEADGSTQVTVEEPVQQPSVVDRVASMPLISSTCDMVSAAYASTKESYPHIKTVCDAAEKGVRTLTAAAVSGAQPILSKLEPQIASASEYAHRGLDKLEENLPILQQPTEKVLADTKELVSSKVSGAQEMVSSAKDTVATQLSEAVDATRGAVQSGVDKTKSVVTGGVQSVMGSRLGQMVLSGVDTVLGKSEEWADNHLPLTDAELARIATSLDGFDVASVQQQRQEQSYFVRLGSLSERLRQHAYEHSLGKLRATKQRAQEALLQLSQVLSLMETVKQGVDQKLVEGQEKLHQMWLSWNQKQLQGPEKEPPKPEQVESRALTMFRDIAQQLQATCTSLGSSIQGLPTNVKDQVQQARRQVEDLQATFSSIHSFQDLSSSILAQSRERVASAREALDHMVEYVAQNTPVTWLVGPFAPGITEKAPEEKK
UniProt O43707, whole entry, looked up: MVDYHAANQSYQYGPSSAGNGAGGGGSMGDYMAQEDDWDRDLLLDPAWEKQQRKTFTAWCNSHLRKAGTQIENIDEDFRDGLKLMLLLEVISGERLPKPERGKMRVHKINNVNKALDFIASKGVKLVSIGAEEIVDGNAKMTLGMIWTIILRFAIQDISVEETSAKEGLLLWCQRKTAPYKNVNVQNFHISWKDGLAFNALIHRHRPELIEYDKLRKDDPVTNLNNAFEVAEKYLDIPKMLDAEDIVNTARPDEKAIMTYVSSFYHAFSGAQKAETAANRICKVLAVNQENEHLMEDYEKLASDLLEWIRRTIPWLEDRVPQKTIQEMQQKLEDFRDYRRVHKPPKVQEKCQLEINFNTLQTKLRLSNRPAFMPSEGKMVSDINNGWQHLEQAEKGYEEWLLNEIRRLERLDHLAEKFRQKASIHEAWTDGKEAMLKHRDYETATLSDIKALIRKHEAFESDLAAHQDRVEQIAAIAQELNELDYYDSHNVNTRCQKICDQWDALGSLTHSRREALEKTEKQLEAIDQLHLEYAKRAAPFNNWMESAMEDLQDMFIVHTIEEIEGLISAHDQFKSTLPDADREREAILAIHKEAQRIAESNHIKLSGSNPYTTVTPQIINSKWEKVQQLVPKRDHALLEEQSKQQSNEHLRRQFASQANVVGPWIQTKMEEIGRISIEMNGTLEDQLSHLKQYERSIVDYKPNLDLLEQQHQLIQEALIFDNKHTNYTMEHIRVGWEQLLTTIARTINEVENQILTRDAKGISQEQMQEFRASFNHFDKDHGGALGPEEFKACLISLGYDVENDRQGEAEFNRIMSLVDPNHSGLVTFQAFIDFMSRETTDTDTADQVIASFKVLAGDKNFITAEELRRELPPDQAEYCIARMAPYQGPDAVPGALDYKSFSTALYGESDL
UniProt O60343: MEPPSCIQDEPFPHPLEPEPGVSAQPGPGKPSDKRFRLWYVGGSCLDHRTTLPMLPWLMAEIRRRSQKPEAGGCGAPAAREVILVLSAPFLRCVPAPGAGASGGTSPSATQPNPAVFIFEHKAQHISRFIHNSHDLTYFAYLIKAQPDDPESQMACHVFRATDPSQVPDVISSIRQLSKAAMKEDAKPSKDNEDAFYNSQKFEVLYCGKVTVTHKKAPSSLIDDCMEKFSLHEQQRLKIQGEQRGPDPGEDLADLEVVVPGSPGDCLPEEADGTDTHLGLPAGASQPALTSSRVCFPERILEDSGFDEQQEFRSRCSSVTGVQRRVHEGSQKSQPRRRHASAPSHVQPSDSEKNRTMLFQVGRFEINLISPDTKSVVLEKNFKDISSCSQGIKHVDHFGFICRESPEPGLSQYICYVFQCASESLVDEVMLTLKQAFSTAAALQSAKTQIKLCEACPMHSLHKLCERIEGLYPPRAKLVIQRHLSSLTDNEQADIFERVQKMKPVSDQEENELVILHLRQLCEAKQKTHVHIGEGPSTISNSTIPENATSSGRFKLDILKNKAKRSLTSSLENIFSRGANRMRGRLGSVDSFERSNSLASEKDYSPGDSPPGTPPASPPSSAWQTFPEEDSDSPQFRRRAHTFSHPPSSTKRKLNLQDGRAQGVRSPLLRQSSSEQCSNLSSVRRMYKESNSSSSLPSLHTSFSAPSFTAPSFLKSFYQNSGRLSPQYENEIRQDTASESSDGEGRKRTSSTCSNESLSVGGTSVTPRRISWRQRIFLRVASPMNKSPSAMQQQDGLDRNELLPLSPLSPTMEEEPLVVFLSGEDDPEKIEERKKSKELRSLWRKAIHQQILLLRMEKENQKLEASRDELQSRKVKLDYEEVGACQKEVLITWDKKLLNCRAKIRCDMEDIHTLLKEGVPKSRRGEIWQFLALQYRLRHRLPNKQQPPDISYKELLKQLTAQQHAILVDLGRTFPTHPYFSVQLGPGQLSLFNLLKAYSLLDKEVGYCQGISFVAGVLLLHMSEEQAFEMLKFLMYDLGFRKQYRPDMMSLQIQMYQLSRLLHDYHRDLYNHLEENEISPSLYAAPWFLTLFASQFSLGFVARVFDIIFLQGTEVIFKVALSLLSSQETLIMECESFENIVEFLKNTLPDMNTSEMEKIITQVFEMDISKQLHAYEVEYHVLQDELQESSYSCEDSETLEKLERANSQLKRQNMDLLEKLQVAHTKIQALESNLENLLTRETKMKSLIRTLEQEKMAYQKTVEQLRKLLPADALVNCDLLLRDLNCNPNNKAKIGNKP
UniProt O75821, whole entry, looked up: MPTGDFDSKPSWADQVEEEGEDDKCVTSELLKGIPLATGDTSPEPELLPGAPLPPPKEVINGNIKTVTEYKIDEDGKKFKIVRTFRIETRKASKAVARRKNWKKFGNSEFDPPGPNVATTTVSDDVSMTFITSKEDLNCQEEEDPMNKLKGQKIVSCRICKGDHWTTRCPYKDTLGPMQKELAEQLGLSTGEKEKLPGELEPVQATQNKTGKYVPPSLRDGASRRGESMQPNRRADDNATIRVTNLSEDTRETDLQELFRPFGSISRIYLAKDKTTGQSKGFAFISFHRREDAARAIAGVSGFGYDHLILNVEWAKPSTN
UniProt O75879: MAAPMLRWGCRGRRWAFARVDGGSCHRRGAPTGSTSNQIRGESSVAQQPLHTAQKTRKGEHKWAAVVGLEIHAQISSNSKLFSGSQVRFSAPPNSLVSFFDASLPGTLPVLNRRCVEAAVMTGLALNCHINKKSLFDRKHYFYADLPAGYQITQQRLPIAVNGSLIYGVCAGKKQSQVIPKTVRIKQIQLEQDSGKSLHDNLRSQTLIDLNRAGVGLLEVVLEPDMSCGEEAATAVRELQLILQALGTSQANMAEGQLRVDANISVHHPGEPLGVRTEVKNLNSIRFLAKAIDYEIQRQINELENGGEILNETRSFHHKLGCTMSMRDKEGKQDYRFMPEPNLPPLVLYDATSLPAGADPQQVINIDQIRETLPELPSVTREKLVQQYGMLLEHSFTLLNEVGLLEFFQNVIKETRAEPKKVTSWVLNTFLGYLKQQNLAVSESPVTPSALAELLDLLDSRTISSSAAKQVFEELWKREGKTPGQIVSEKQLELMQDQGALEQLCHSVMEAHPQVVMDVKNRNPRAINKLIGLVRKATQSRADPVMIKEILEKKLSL
UniProt O76031, whole entry, looked up: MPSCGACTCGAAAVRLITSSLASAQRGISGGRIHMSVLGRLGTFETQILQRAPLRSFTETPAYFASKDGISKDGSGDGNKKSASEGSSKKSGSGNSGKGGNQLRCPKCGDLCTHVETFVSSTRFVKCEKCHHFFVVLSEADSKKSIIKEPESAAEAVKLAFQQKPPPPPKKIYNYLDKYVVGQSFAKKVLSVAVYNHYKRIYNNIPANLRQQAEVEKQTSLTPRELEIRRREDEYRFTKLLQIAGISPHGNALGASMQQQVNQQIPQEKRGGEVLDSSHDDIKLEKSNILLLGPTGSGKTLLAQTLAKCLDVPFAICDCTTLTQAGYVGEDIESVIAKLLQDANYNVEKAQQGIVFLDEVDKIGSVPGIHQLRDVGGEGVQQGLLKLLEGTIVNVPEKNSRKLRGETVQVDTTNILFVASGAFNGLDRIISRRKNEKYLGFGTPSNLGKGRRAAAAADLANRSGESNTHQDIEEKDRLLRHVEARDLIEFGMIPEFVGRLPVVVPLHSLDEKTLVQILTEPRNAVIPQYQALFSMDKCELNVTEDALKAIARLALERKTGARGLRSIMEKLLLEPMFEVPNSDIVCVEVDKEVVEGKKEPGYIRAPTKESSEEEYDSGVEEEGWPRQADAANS
UniProt O75152: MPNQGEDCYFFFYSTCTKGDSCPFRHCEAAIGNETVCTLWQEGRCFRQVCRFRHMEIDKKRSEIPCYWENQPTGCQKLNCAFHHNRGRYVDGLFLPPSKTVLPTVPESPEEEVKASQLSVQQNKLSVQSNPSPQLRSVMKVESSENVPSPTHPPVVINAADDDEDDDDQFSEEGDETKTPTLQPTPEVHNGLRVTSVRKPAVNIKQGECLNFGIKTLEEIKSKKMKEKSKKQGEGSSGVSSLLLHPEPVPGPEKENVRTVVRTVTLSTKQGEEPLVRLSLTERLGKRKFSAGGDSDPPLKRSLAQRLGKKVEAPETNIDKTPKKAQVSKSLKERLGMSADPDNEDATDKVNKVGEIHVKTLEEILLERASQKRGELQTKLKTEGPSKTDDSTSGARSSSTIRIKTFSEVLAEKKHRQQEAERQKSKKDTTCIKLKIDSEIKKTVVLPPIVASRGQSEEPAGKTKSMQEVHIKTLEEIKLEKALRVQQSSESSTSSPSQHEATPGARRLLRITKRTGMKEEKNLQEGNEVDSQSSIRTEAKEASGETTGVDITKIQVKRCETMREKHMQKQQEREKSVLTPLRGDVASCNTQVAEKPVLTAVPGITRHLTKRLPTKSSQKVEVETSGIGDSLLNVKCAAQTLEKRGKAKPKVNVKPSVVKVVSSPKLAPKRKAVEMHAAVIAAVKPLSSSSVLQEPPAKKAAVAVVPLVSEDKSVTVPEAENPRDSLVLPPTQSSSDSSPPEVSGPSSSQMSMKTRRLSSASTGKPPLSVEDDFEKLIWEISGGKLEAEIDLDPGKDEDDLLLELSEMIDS

Compound in this assay: COC(=O)/C=C/c1ccccc1 [methyl cinnamate]
The experiment in a line: log2 ratio of iodoacetamide-alkyne labeling of the cysteine site, DMSO over compound (competition); higher = stronger covalent engagement of the cysteine by the compound, active = 1 or more. To be noted: 500 µM; treatment time 1 h; system: HEK293T cell lysate. Put shortly:
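Reporter intensities give each cysteine's log2 competition ratio as the mean of control channels over the mean of compound channels. The samples were HEK293T lysate (2 mg/mL) given vehicle or electrophile (500 µM, 1 h, ambient temperature), then iodoacetamide alkyne (1 h), followed by click coupling to sCIP-TMT reagents, pooling, trypsin digestion overnight at 37 °C, streptavidin enrichment, acid elution, Orbitrap Eclipse LC-MS/MS with FAIMS and FragPipe quantification. Duplicate channels and three replicates were run, and cysteines quantified in only one replicate were discarded.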
In the case of OPA1 C375 (UniProt O60313), the “log2 ratio of iodoacetamide-alkyne labeling” value (“log2 ratio” below) is inactive: 0.191.

Consider UniProt O43776_C438, for which the “log2 ratio” value was inactive: 0.0957. In the case of NCOR1 C1274 (UniProt O75376), the “log2 ratio” value is inactive: 0.164.

Turning to GGCT C6 (UniProt O75223), the “log2 ratio” value was inactive: 0.127. As for HTATSF1 C471 (UniProt O43719), the figure is inactive: 0.449. ROCK2 C649 (UniProt O75116): the “log2 ratio” value is inactive: 0.4. Turning to ANKRD17 C58 (UniProt O75179), the “log2 ratio” value is inactive: 0.616. As for DCTN3 C173 (UniProt O75935), the figure is inactive: 0.155. Take UniProt O60664_C341: the “log2 ratio” value is inactive: 0.00943. As for ACTN4 C499 (UniProt O43707), the figure is inactive: -0.0623. With UniProt O43776_C537, the “log2 ratio” value is inactive: 0.153.

Regarding WIPF1 C446 (UniProt O43516), the “log2 ratio” value was inactive: 0.281.

TBC1D4 C45 (UniProt O60343): the “log2 ratio” value is inactive: 0.0286. As for RSL1D1 C211 (UniProt O76021), the figure is inactive: 0.115; as for EIF3G C25 (UniProt O75821), inactive: 0.108; as for OBSL1 C581 (UniProt O75147), inactive: 0.387.

With UniProt O75879_C228, the “log2 ratio” value is inactive: -0.21. As for ZW10 C124 (UniProt O43264), the figure is inactive: -0.223; as for CLPX C586 (UniProt O76031), inactive: -0.177. As for UniProt O75192_C203, the “log2 ratio” value was inactive: 0.411. Regarding ZC3H11A C588 (UniProt O75152), the “log2 ratio” value was inactive: 0.0193. Regarding FLNB C1617 (UniProt O75369), the “log2 ratio” value is inactive: 0.152.

The values above are taken from the supplement of paper PMC11006884.
